Data published in PubChem BioAssay AID1487 (National Center for Advancing Translational Sciences (NCATS), 2009).
The other results are listed elsewhere or left out. These are further read-outs of the screen, such as a control signal, another cell line or another target. No call is given for them. Most of these compounds were active or inconclusive in the main read-out, so they are no random draw. The note in brackets gives the kind of curve behind each potency; many fits are weak.

Assay: qHTS Assay for Modulators of Lamin A Splicing
Details: HeLa LMNA splicing GFP/RFP minigene ratio, 48 h
In short: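 S3 HeLa stable clones carrying a lamin A-EGFP splicing minigene plus DsRed2 were seeded at 600 cells/well in Opti-MEM with 2% FBS, pin-dosed and incubated 48 h at 37°C. Acumen cytometry (488 nm) gave the GFP/RFP total-intensity ratio.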

[1] = measured here: GFP splicing reporter channel
[2] = measured here: RFP viability control channel

SMILES | AC50 [1] | AC50 [2]
Cc1ccc(S(=O)(=O)N2CCC(=O)N(C(COCc3cccc(Cl)c3)C(C)C)CC2)cc1 (centres undefined) | 35.5 µM [rising, single point] | 28.2 µM [rising, single point]
CN(C)S(=O)(=O)c1ccc(NC(=O)c2cc3ccccc3o2)cc1 | 35.5 µM [rising, single point] | 31.6 µM [rising, single point]
Oc1nc(Nc2cccc(Cl)c2)sc1/C=C1\C=Nc2ccccc21 | 31.6 µM [falling, single point] | –
Cc1ccc(C)c(NC(=O)Cn2nnc(C(=O)NCc3ccco3)c2N)c1 | – | 11.2 µM [rising, partial curve]
O=C(O)CCNC(=O)c1ccc(N=Nc2ccc(O)c(C(=O)O)c2)cc1 | 0.00794 µM [falling, full curve, poor fit] | 5.62 µM [rising, partial curve, poor fit]
COc1ccc2c(c1)OC/C(=C/c1ccc(OC)c(OC)c1)C2=O | 11.2 µM [falling, partial curve] | 17.8 µM [falling, partial curve]
COc1ccccc1-c1nc(NCc2cccnc2)c2ccccc2n1 | 14.1 µM [falling, partial curve] | –
Cc1cc(C)c2c(n1)nn1c(C)c(CCC(=O)NCc3ccco3)c(C)nc21 | – | 0.01 µM [rising, full curve, poor fit]
Cc1nn(C)c2c1c(C(F)(F)F)cc(=O)n2C(C)C(=O)N1CCN(c2ccccc2)CC1 (centres undefined) | 0.00794 µM [falling, full curve, poor fit] | 0.00891 µM [falling, full curve, poor fit]
COC(=O)c1c(-c2ccc(F)cc2)csc1NC(=O)c1ccco1 | 12.6 µM [rising, partial curve] | 22.4 µM [rising, single point]
CC(NC(=O)COC(=O)c1cc(NS(=O)(=O)c2ccc(Cl)c([N+](=O)[O-])c2)ccc1O)C1CC2CCC1C2 (centres undefined) | 11.2 µM [falling, partial curve] | 11.2 µM [falling, partial curve, poor fit]
Cc1ccc(Oc2ncnc(N)c2[N+](=O)[O-])cc1 | 11.2 µM [falling, partial curve, poor fit] | –
O=C(COC(=O)[C@@H]1CC(O)CN1S(=O)(=O)c1ccc2c(c1)OCCO2)Nc1ccccc1F (some centres undefined) | – | 0.0282 µM [falling, full curve, poor fit]
Cc1ccc(CC(=O)Nc2ccccc2-c2ccccc2)cc1C | 35.5 µM [rising, single point] | 35.5 µM [rising, single point]
CCN(CC)S(=O)(=O)c1ccc2oc(C(=O)NC3CCCc4ccccc43)c(C)c2c1 (centres undefined) | 6.31 µM [rising, partial curve] | 10 µM [rising, partial curve]
O=[n+]1cc(-c2ccc(Cl)cc2)n([O-])c2c1CCCCC2 | 11.2 µM [rising, partial curve, poor fit] | 11.2 µM [rising, partial curve, poor fit]
COc1ccc(-c2nc(SCC(=O)Nc3cccc(C(C)=O)c3)n[nH]2)cc1 | – | 0.891 µM [rising, full curve, poor fit]

SMILES | AC50 [1] | AC50 [2]
COc1cccc(CN2CCN(C(=O)c3ccc(-c4ccccc4)cc3)CC2)c1 | 10 µM [falling, partial curve, poor fit] | 0.00447 µM [falling, full curve, poor fit]
CCN(CC)C(=O)Cn1c(=O)n(-c2ccccc2)c(=O)n1CC(=O)N(CC)CC | – | 5.62 µM [rising, single point]
CCOC(=O)C1(Cc2cccc(OC)c2)CCCN(Cc2nccn2CC)C1 (centres undefined) | – | 35.5 µM [falling, single point]
Fc1ccc(-c2noc3ncnc(N4CCCCC4)c23)cc1 | 31.6 µM [rising, single point] | –
COC(=O)Cn1c(CCS(=O)(=O)c2ccc(C)c(C)c2)nc2ccccc21 | – | 22.4 µM [rising, partial curve, poor fit]
COc1ccc(S(=O)(=O)NCCc2cn3ccsc3n2)cc1 | 3.98 µM [falling, partial curve, poor fit] | –
COc1ccccc1N=c1scc(-c2ccc3c(c2)NC(=O)CO3)n1CC1CCCO1 (centres undefined) | – | 10 µM [rising, single point]
CCc1ccc(NC(=O)Cn2nnc(C(=O)Nc3cc(C)ccc3OC)c2N)cc1 | – | 12.6 µM [falling, partial curve, poor fit]
CCc1n[nH]c(=S)n1/N=C/c1cc(Br)c(OC)cc1OC | – | 22.4 µM [rising, single point]
Cc1cccc(-c2cc3nc(-c4ccccc4)cc(N4CCC5(CC4)OCCO5)n3n2)c1 | – | 31.6 µM [rising, single point]
O=C(NCc1cccnc1)C(=O)NCC(c1ccco1)N1CCOCC1 (centres undefined) | – | 1.12 µM [falling, partial curve]
COc1ccc(NC(=O)/C(Cl)=C(/Cl)S(=O)Cc2ccccc2)cn1 (centres undefined) | 6.31 µM [falling, full curve] | 7.94 µM [falling, partial curve]
Cc1c(Cl)cnc(NC(=O)COC(=O)c2cccc(S(=O)(=O)N3c4ccccc4CC3C)c2)c1Cl (centres undefined) | – | 0.126 µM [rising, full curve]
CCN(CC)c1cc2nonc2c2nonc12 | – | 2.82 µM [falling, partial curve]
Cc1ccc(N2C(=O)C3C4C=CC(CNC(=S)Nc5ccc(F)cc5)(O4)C3C2=O)cc1 (centres undefined) | 11.2 µM [rising, partial curve] | 14.1 µM [rising, partial curve]
CC(C)Nc1nnc(SCC(=O)c2c[nH]c3ccccc23)s1 | 17.8 µM [rising, single point] | 22.4 µM [rising, single point]
O=C(CCN1CCN(c2ccccc2)CC1)Nc1ccc(Cl)cc1 | 14.1 µM [rising, single point] | 35.5 µM [rising, single point]

A section from further up, as a working copy:
SMILES | AC50 [1] | AC50 [2]
CCc1n[nH]c(=S)n1/N=C/c1cc(Br)c(OC)cc1OC | – | 22.4 µM [rising, single point]
Cc1cccc(-c2cc3nc(-c4ccccc4)cc(N4CCC5(CC4)OCCO5)n3n2)c1 | – | 31.6 µM [rising, single point]
O=C(NCc1cccnc1)C(=O)NCC(c1ccco1)N1CCOCC1 (centres undefined) | – | 1.12 µM [falling, partial curve]
